No constants are given. Whether binding was seen depends on the method and setting. In cells and extracts the contact can be indirect. A yes stands for co-enrichment or nearness to the bait. Other partners may have been found.

Chains of the proteins cited; added tags and fusions are not shown. Lines headed by an entry give the natural chain unless they say otherwise; changes in a name come on top.
UniProt Q57Z59: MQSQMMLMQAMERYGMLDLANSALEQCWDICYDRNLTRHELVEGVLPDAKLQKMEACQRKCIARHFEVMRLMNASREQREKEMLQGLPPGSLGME
UniProt Q389I9: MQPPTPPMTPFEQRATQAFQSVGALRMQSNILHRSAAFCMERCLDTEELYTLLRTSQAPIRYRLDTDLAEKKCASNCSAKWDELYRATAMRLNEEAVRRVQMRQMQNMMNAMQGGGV
UniProt Q585K7: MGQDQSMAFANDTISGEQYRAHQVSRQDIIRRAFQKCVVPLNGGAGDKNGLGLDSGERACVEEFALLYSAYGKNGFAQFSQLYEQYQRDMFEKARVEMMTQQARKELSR

Assay [1] concerns the target TbTim11-HA (T. brucei) (UniProt Q57Z59). The assay is described as follows: affinity purification with mass spectrometry; SILAC (induced versus uninduced cells mixed); soluble IMS fraction after 0.2% digitonin; anti-HA immunoprecipitation, quantitative MS, three biological replicates.
Assay [2] has as its target TbTim13-HA (T. brucei) (UniProt Q389I9). Described as above.

As to “TbTim12 (endogenous) (from UniProt Q585K7)”, the binding entry in assay [1] and in assay [2] was “binds” in each case.

The values above are taken from article PMC5584982.
